The source of these data is patent US20180353462A1, “[…] AGENTS […] FLAVONOID DERIVATIVES TARGETING KINASES, SIRTUINS AND ONCOGENIC AGENTS FOR THE TREATMENT OF CANCERS” (priority 2015, published 2018).

Structures are written as SMILES.

Assay [1] relates to THP-1 acute myeloid leukemia cell line. Kind of assay: WST-1 anticancer cell proliferation assay, THP-1. The assay is classed as cell-based. Particulars: Homo sapiens, Table 4, read-out: Acute Myeloid Leukemia cell lines THP-1 IC50. The procedure:
(§1) Anticancer activity was tested against several standard cancer cell lines including brain, breast, Kaposi sarcoma, leukemia, lung, melanoma, tenosynovial giant cell tumor, ovarian, pancreatic, colon and prostate cancer. Cells were trypsinized and plated into 96 well plates in 50 μl of media and incubated overnight. The next day approximately 18 hours after plating, 50 μl of media containing the required flavonoid-based pharmaceutical composition was added per well. Cells were plated at a density so that 72 hours post drug addition, the cells will be in log phase (500)-2000 cells/well). The compounds and extracts were solubilized in Dimethyl sulfoxide (DMSO). The cells are allowed to proliferate for 72 hours 37° C. in humidified atmosphere of 5% CO2. The experiment is terminated using WST-1 (Roche®) 10 μl per well and absorbance is read at 450 nm %690 nm. The effect of drugs on growth is assessed as percent of cell viability. The IC50 values were determined from the extract dose versus control growth curves using Graphpad Prism® software. All experiments were carried out in duplicate and the mean results determined.

The test system of another assay is MV4-11 (Leukemia). In words: WST-1 anticancer cell proliferation assay, MV4-11. The assay is classed as cell-based. Particulars: Homo sapiens, Table 4, read-out: Acute Myeloid Leukemia cell lines MV4-11 IC50. The procedure:
as §1, with “Bioactivity of the above-described compounds has been verified by an anticancer cell proliferation assay using the WST-1 (4-[3-(4-iodophenyl)-2-(4-nitrophenyl)-2H-5-tetrazolio]-1, 3-benzene disulfonate) colorimetric assay by Roche Life Sciences®. Anticancer” for “Anticancer”
On the technique in general: Tetrazolium assays rely on reduction of a dye to a coloured formazan, in cell work by metabolically active cells.

One may read the IC50 as the concentration at which inhibition is half-maximal. Consider `CO[C@@H]1[C@H](N(C)C(=O)c2ccccc2)C[C@H]2O[C@]1(C)n1c3ccccc3c3c4c(c5c6ccccc6n2c5c31)C(=O)NC4` [Midostaurin, reference compound], for which the IC50 in assay [1] is over 100 µM; in the assay on MV4-11 (Leukemia), 8 nM.
